# Values quoted from earlier work as cited in US12521362B2, “Agent for treating, preventing, or improving psychiatric and nervous system disorders or symptoms” (TOKYO UNIVERSITY OF SCIENCE FOUNDATION, priority 2019, dated 2026).
# At least one read-out could not be matched to a standard name with certainty.
# Settings: brain uptake analysis, mice; data of Patent Document 3; cited from earlier work
compound,measurement,value
"CCN(CC)C(=S)SSC(=S)N(CC)CC [disulfiram, tetraethylthiuram disulfide]",blood-brain barrier permeability,very low
